# Library screen at single concentrations

Amino acid sequences for entries named in this document (tags omitted). Residues count along the entry.
UniProt Q4DA54, 1-478: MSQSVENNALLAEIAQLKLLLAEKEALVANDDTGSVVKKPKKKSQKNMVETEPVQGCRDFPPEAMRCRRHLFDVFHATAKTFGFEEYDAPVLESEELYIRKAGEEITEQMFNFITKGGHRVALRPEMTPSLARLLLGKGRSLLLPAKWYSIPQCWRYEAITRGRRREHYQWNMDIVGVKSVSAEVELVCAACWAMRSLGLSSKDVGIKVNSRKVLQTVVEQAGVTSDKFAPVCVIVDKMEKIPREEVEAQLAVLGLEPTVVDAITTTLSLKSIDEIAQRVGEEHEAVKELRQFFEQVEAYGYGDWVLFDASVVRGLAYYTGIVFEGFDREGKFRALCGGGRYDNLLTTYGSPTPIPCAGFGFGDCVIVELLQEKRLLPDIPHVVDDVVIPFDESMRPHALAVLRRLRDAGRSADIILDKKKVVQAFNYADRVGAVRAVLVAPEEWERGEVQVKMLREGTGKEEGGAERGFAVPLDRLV
UniProt P9WNZ1, whole entry: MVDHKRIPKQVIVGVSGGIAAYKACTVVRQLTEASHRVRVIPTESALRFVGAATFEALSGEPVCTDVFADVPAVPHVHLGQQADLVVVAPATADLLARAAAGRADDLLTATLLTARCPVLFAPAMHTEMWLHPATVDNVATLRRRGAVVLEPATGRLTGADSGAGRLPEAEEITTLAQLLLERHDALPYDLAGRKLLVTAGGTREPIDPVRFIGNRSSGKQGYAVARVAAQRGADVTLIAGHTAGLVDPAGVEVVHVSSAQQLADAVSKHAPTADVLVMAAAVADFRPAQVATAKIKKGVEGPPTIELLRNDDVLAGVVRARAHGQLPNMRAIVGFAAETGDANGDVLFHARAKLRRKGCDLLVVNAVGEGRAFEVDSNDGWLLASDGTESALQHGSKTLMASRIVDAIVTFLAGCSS
UniProt P9WPC5, whole entry: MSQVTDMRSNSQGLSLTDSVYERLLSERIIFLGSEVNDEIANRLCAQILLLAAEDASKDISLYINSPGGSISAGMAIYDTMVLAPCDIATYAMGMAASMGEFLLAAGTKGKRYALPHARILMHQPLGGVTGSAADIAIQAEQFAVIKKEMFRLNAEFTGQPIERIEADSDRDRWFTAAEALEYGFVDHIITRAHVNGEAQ
UniProt P9WPC3, whole entry partner: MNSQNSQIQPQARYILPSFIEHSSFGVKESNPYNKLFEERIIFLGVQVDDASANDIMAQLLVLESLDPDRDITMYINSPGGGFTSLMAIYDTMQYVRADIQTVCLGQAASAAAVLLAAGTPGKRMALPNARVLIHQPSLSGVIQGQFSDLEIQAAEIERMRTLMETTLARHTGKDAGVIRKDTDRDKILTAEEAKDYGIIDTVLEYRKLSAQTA
UniProt Q8IDJ8, 1-583: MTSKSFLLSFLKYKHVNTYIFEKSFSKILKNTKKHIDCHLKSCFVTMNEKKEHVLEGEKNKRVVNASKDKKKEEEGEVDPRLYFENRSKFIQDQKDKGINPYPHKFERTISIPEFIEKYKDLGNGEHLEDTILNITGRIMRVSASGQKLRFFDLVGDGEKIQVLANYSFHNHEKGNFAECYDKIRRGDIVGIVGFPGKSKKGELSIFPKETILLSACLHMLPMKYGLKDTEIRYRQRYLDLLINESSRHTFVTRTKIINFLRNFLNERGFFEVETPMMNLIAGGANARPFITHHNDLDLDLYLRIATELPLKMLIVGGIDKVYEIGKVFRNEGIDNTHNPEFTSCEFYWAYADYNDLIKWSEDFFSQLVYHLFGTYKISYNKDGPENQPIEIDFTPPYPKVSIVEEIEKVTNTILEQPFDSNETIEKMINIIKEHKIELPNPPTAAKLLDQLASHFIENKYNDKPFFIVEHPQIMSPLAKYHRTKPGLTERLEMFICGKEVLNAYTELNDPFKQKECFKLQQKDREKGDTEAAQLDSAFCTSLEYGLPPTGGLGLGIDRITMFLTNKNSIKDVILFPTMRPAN

The filed quantity is “Percent Effect” (%).
The controls that fix the scale are not given in the record; negative values are as filed.
This is an unselected part of the compounds tested.
Two or more numbers in one place are separate tests of the same structure; such repeats can differ widely.

Leishmania in macrophages: 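Cell assay of Leishmania donovani living inside macrophages; the read-out is not stated. Compounds at 30 µM. Higher reads as stronger inhibition (inferred: compounds with an IC50 in retests scored well above the rest). Of about 69,000 compounds tested this way, about 1,000 (1.5%) reached 50% or more in at least one test.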
TcHisRS: 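Histidine-tRNA ligase, Trypanosoma cruzi CL Brener (UniProt Q4DA54). Enzyme assay of histidyl-tRNA synthetase; the read-out is not stated. Compounds at 30 µM. The record gives no direction; compounds that gave an IC50 in retests scored well above the rest, so higher reads as stronger inhibition. Of about 69,000 compounds tested this way, about 31 (0.045%) reached 50% or more in at least one test.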
CoaBC: 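Enzyme assay of CoaBC with a phosphate dye (Biomol Green) read at 650 nm. Target: Coenzyme A biosynthesis protein CoaBC, Mycobacterium tuberculosis (UniProt P9WNZ1). Compounds at 30 µM. Higher reads as stronger inhibition, judged from the few compounds that gave an IC50. Most strong results did not repeat in a second test. About 67,000 compounds were tested under these conditions; 0.06% (about 40) showed 50% or more at least once.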
ClpP1P2: 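ClpP1P2, Mycobacterium tuberculosis (UniProt P9WPC5 and UniProt P9WPC3). Protease assay of ClpP1P2, read by the AMC dye that it sets free. Compounds at 50 µM. Higher reads as stronger inhibition, judged from the few compounds that gave an IC50. Most other retested compounds had strongly negative values. Size under these conditions: about 69,000 compounds, about 10 of them at 50% or above in at least one test.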
PfKRS1: 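Lysine-tRNA ligase, Plasmodium falciparum 3D7 (UniProt Q8IDJ8). Enzyme assay of the cytosolic lysyl-tRNA synthetase in 384-well plates, read by luminescence. Tested at 30 µM. Direction is inferred from only a few compounds that gave an IC50; most scored high, so higher reads as stronger inhibition. Of about 69,000 compounds tested this way, about 49 (0.071%) reached 50% or more in at least one test.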

* Cc1ccc(C(=O)N(CCC#N)Cc2ccccn2)cc1C | Leishmania in macrophages: 25.25%; TcHisRS: 11.67%; CoaBC: 7.025%; ClpP1P2: 4.53%; PfKRS1: 12.4%
* COc1ccc(C(CNC(=O)Nc2cn[nH]c2)N2CCOCC2)cc1 (centres undefined) | Leishmania in macrophages: 11.83%; TcHisRS: 0.3774%; CoaBC: -0.7692%; ClpP1P2: 10.83%; PfKRS1: 2.671%
* Cc1noc(C2CCCN(Cn3cc(Cl)cn3)C2)n1 (centres undefined) | Leishmania in macrophages: 15.87%; TcHisRS: 7.143%; CoaBC: 2.642%; ClpP1P2: 1.075%; PfKRS1: 3.906%
* O=C(N1CCCC1)N1C[C@H]2CC[C@@]3(N=C(c4ccccc4)NC3=O)[C@H]2C1 | TcHisRS: 1.961%; CoaBC: 6.189%; ClpP1P2: -2.537%; PfKRS1: 2.708%
* O=C(NCc1ccccc1)N1CCC2(CC(=O)N(c3ccsc3)C2)C1 (centres undefined) | Leishmania in macrophages: 9.286%; TcHisRS: 4.813%; CoaBC: 0.207%; ClpP1P2: -2.061%; PfKRS1: 0.566%
* [H][C@@]12CS(=O)(=O)C[C@]1([H])N(Cc1nccn1C)CCN2CC1CC1 | Leishmania in macrophages: 9.874%
* COc1cccc(C(=O)NS(=O)(=O)c2cc(Cl)sc2Cl)c1OC(F)F | Leishmania in macrophages: 19.46%; TcHisRS: 11.67%; CoaBC: 2.479%; ClpP1P2: 8.132%; PfKRS1: 6.29%
* Cc1ccc(Cl)cc1N1CCN(CC(=O)NC(C)c2ccco2)CC1 (centres undefined) | Leishmania in macrophages: -39.9%; TcHisRS: -0.8772%; CoaBC: -2.641%; ClpP1P2: -1.555%; PfKRS1: 3.416%
* COc1ccccc1C1CNC(=O)c2nc(-c3cn(C)nc3C)[nH]c2C1 (centres undefined) | Leishmania in macrophages: -10.82%; TcHisRS: 2.041%; CoaBC: 10.32%; ClpP1P2: -2.18%; PfKRS1: 7.847%
* Cc1ccc(NS(=O)(=O)CC2=NC(=O)n3cccc3C2=O)cc1 | Leishmania in macrophages: -20.59%; TcHisRS: -8.197%; CoaBC: -4.98%; ClpP1P2: 1.479%; PfKRS1: 2.391%
* CCC(C)NC(=O)c1coc(COc2cccc(F)c2)n1 (centres undefined) | Leishmania in macrophages: 16.09%; TcHisRS: 4.348%; CoaBC: -3.738%; ClpP1P2: -5.863%; PfKRS1: 2.238%
* COc1ccc(CN2Cc3[nH]nc(C(=O)N(C)C)c3C2)cc1 | Leishmania in macrophages: 5.856%; TcHisRS: -0.9709%; CoaBC: -2.96%; ClpP1P2: -6.025%; PfKRS1: 3.886%
* Cc1noc(C)c1CCC(=O)NCCc1cccs1 | Leishmania in macrophages: 3.206% & 8.844%; TcHisRS: 2.062%; CoaBC: -4.017%; ClpP1P2: 5.994%; PfKRS1: 5.896%
* O=C(O)C(F)(F)F.[H][C@]12CN(Cc3cccc(C)c3)C(=O)[C@@]1([H])CN(C1CCOCC1)C2 | Leishmania in macrophages: 15.93%
* CSc1cc(CNC(=O)CCOc2ccccc2C)ccn1 | Leishmania in macrophages: -6.849%; TcHisRS: 0%; CoaBC: 3.509%; ClpP1P2: -3.12%; PfKRS1: -2.97%
* Cc1nccn1-c1ccc(C(=O)NCC(F)(F)F)nn1 | Leishmania in macrophages: -0.3458%; TcHisRS: 2.646%; CoaBC: -11.33%; ClpP1P2: 0.3761%; PfKRS1: 5.998%
* Cn1cc(N2C(=O)CC[C@@H]3[C@H]2CCN3C(=O)c2cscn2)cn1 | TcHisRS: 8.163%; CoaBC: 4.574%; ClpP1P2: -9.947%; PfKRS1: -0.8446%
* Cc1ccc(F)c(NS(=O)(=O)c2cc(C(=O)O)oc2C)c1 | Leishmania in macrophages: -10.68%; TcHisRS: 4.023%; CoaBC: 1.677%; ClpP1P2: 4.363%; PfKRS1: 2.405%
* O=C(O)C(F)(F)F.[H][C@@]12C[C@H](C(=O)N3CCCO3)CN(Cc3ccco3)[C@]1([H])CCO2 | Leishmania in macrophages: 27.74%
* CCOc1ccc(N2CCCN=C2NC(=O)c2ccc(OC)cc2)cc1 | Leishmania in macrophages: -109.3%; TcHisRS: 5.217%; CoaBC: 3.002%; ClpP1P2: 20.59%; PfKRS1: 4.005%
* O=C(O)C(F)(F)F.O=C(O)C(F)(F)F.c1cn2c(n1)CN(C1CCOCC1)CC(CN1CCCC1)C2 (centres undefined) | Leishmania in macrophages: 15.75% & 18.24%
* COc1ccc(-c2ccnc(N)c2)c(C)c1 | Leishmania in macrophages: 26.5%; TcHisRS: 7.216%; CoaBC: 10.29%; ClpP1P2: -2.564%; PfKRS1: 2.995%
* CNc1cncc(C2CCCN2Cc2ccnc(C)n2)n1 (centres undefined) | Leishmania in macrophages: 20.73% & 6.394%; TcHisRS: 8.791%; CoaBC: 7.767%; ClpP1P2: -5.235%; PfKRS1: 1.535%
* CCc1cn[nH]c1C1CCN(c2cc(C)c3cccc(OC)c3n2)CC1 | Leishmania in macrophages: 13.27%; TcHisRS: 32.98%; CoaBC: 7.172%; ClpP1P2: -9.504%; PfKRS1: 2.714%
* Cc1nc(C)c2c(n1)CCN(C(=O)CN(C)C)CC2 | Leishmania in macrophages: 19.82% & 13.57%; TcHisRS: 2.151%; CoaBC: -3.171%; ClpP1P2: 3.195%; PfKRS1: 8.085%

From ChEMBL document CHEMBL3988442, “University of Dundee, Small-Polar-MMV Screening Library” (2021).